The target in this assay is Cynomolgus monkey CD73 on HEK293-cynoCD73 stable cell line (cynomolgus monkey). Kind of assay: flow cytometry on HEK293-cynoCD73 stable cells. (In flow cytometry, cells or beads pass a laser one at a time.)

These are yes or no findings as the source states them, for the method shown. Binding calls can cover weak binding; strength is not graded here.

B1: Tab1 (antibody, human IgG1, lambda, V domains shown)
VH: EVQLLESGGGLVQPGGSLRLSCAASGFTFSSYAYSWVRQAPGKGLEWVSAISGSGGRTYYADSVKGRFTISRDNSKNTLYLQMNSLRAEDTAVYYCARLGYGRVDEWGRGTLVTVSS
VL: QSVLTQPPSASGTPGQRVTISCSGSLSNIGRNPVNWYQQLPGTAPKLLIYLDNLRLSGVPDRFSGSKSGTSASLAISGLQSEDEADYYCATWDDSHPGWTFGGGTKLTVLG
B1: the binding entry is given as “binds”.
